Laboratory results taken from PubChem BioAssay AID1745849 (National Center for Advancing Translational Sciences (NCATS), 2022).
The entries are a selection whose mix differs from that of the whole data set. Inconclusive results are not listed. Active and inactive are the calls of the source. The call rests on the fitted dose curve; in most records, active means well fitted cell-killing curve with a large enough effect; inconclusive means small, poorly fitted or top-dose-only effect, or effect the other way; inactive means flat fitted curve, though single readings scatter.

Assay: Viability Counterscreen for CMV-Luciferase Assay of Inhibitors of ATXN expression; further: nearly all actives have a fitted effect of over 55% in size
Details: HEK-293 CMV-luciferase cells viability, protease fluorescence, 24 h
From the text: PI: Daniel Scoles Ph.D. University of Utah School of Medicine, Salt Lake City, Utah MLPCN Grant: NS073009 Spinocerebellar ataxia type 2 (SCA2) is a multisystem neurodegenerative disease caused by a dominantly acting mutation leading to expansion of a polyQ domain in the ataxin-2 protein (ATXN2). SCA2 patients develop progressive ataxia and later lose function in other neuronal systems. Prominent parkinsonian signs develop in some patients. Like many neurodegenerative disorders, no symptomatic or disease-modifying treatments are known. The primary objective of the proposed research is to identify compounds inhibiting ATXN2 expression and to test them for efficacy in SCA2 mouse models. […] Here we describe a 5-7 dose quantitative high thoroughput screen (qHTS) for compounds lowering ATXN2 expression. […]
PROTOCOL TABLE (as described by Inglese J, Shamu CE and Guy RK. 2007) SEQUENCE No. (e.g., 1, 2, 3, etc.); PARAMETER (e.g., Cells, Incubation, Reagent, etc.); VALUE; DESCRIPTION. […] 7; Detection; Fluorescence; Viewlux plate reader (PerkinElmer). […] 10; Detection; Luminescence; ViewLux plate reader (PerkinElmer). […] To assess cell viability; the assay plates were read using the ViewLux high-throughput CCD imager (PerkinElmer), wherein single end-point fluorescence measurement was acquired (excitation 405/10; emission 540/25 nm). […]
Potency means the concentration at half of the fitted maximal effect.

SMILES | Potency
COc1ccccc1C(=O)NNC(=S)NC(=O)c1ccco1 | active: 12.6 µM
